“And” between values parts separate entries of the source, which are not always exact repeats. Equal values may be shown once. Among all 400,000 compounds or so, about 3,700 (0.93%) were called active. Inconclusive results, whose numbers are uncertain, are shown with a selection of clear calls. Calls come from the whole dose curve; as a rule, active = well fitted inhibition curve with a large enough effect; inconclusive = small, poorly fitted or top-dose-only effect, or another doubt; inactive = no such curve, though single readings can be large or run the other way. A potency beside an inconclusive call is a rough fit, not a confirmed value.
target: Vitamin D3 receptor (Homo sapiens) (UniProt P11473); experiment: Inhibitors of the vitamin D receptor (VDR): qHTS; conditions: VDR-SRC2-3 peptide fluorescence polarization, 2 h; max response, negative = inhibition: active compounds read low
Outline: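 Fluorescence polarization assay measuring small-molecule disruption of VDR binding to the coregulator peptide SRC2-3. Compounds were pin-transferred (23 nl) into the reagent mix and incubated 2 h at room temperature before reading.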
% is set by controls: 0 for no effect and ±100 for the full control effect; potency is the fitted concentration of half-maximal effect.

Protein sequences, listed by entry. Tags and fused reporters are not part of them. Lines headed by an entry give the natural chain unless they say otherwise; changes in a name come on top.
UniProt P11473: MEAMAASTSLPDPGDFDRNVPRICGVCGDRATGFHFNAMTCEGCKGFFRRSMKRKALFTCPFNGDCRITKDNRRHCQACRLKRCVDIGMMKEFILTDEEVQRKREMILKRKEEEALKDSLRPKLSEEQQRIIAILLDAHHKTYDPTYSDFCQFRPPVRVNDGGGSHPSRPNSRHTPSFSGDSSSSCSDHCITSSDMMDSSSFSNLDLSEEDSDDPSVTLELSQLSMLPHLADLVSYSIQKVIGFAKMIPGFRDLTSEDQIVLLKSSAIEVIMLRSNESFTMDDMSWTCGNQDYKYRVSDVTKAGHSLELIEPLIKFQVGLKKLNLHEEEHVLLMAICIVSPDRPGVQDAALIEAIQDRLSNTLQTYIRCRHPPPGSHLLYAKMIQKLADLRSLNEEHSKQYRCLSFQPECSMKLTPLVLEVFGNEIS

Question: How did the max response, negative = inhibition turn out when `CC(=O)c1cc(C(=O)Nc2ccccc2C(=O)O)oc1C` was run?
Answer: inactive: 12.7%

Question: With `O=C(NCCCn1ccnc1)C(=O)NCC1OCCCN1S(=O)(=O)c1ccccc1` (stereo unspecified) as the molecule, how does the Potency read?
Answer: inconclusive: 11.2 µM [inhibitor, partial curve, poor fit]

Question: For `CN(Cc1ccccc1)C(=O)COC(=O)c1cc([N+](=O)[O-])ccc1N1CCOCC1`, which max response, negative = inhibition is on record?
Answer: inactive: -4.61%

Question: `Cc1cccc(C(C(=O)NC2CCCC2)N(C(=O)c2csnn2)C2CC2)c1` (stereo unspecified) was tested. Which max response, negative = inhibition did it give?
Answer: inactive: 17.6%

Question: Which Potency does the source give for `COc1ccc2oc(=O)c(/C(C)=N/NC(=O)c3ccncc3)cc2c1` here?
Answer: inconclusive: 89.1 µM [inhibitor, single point]

Question: `Cc1cc(SCc2ccc([N+](=O)[O-])cc2)nc(=O)[nH]1` was tested. Which Potency did it give?
Answer: inconclusive: 89.1 µM [inhibitor, partial curve, poor fit]

Question: Which Potency does the source give for `CCOC(=O)c1nnc(-c2ccc(C)cc2)nc1Sc1ccc(Cl)cc1` here?
Answer: inconclusive: 89.1 µM [inhibitor, single point]

Question: With `O=S(=O)(c1ccc(N2CC=C(c3ccccc3)CC2)nc1)N1CCCC1` as the molecule, how does the Potency read?
Answer: inconclusive: 79.4 µM [inhibitor, partial curve]

Question: Which max response, negative = inhibition does the source give for `COc1cccc([C@@H]2Oc3ccc(OC)cc3C[C@H]2O)c1` here?
Answer: inactive: -0.913%

Question: Which max response, negative = inhibition does the source give for `OCCNc1nc(N2CCN(c3ccccc3)CC2)nc2ccccc12` here?
Answer: inactive: 8.99%

Question: Which Potency does the source give for `Cc1ccc(-c2c3c([nH]c(=S)c2C#N)CCCC3)o1` here?
Answer: inconclusive: 79.4 µM [inhibitor, partial curve, poor fit]

Question: Which Potency does the source give for `O=C(CSC1=NCCS1)N1CCN(c2ccc(Cl)cc2)CC1` here?
Answer: inconclusive: 5.01 µM [inhibitor, partial curve, poor fit]

Question: For `COc1ccccc1NC(=O)c1cc(S(=O)(=O)N2CCCC2)cn1C`, which max response, negative = inhibition is on record?
Answer: inactive: -12.8%

Question: For `CC(C)(O)c1[nH]c2cc(F)ccc2c1C(C)(C)O`, which Potency is on record?
Answer: inconclusive: 89.1 µM [inhibitor, partial curve, poor fit]

Question: How did the Potency turn out when `O=C(Nc1ccc2[nH]c(=S)sc2c1)c1ccccc1` was run?
Answer: inconclusive: 89.1 µM [inhibitor, single point]

Question: How did the Potency turn out when `CC1(c2nnc(Cc3ccccc3)o2)CC(c2ccc(C#N)cc2)=NO1` (stereo unspecified) was run?
Answer: inconclusive: 79.4 µM [inhibitor, partial curve]

Question: `COCCN(C(=S)Nc1ccc(C)cc1)C(C)c1cccnc1` (stereo unspecified) was tested. Which max response, negative = inhibition did it give?
Answer: inactive: -9.94%

Question: `O=[N+]([O-])c1ccc(Oc2cccc3cccnc23)c([N+](=O)[O-])c1` was tested. Which Potency did it give?
Answer: inconclusive: 56.2 µM [inhibitor, partial curve, poor fit]

Question: `COc1ccc(OC)c(N(CC(=O)NCc2ccccc2)S(=O)(=O)c2ccccc2)c1` was tested. Which max response, negative = inhibition did it give?
Answer: inactive: 8.59%

Question: How did the Potency turn out when `N#Cc1ccc(/C=C/C(=O)c2ccco2)cc1` was run?
Answer: inconclusive: 50.1 µM [inhibitor, partial curve, poor fit]

Question: How did the Potency turn out when `CCCCCN(C(=O)CCC(=O)OCC(=O)Nc1cccc(CC)c1)c1c(N)n(CCCC)c(=O)[nH]c1=O` was run?
Answer: inconclusive: 2.51 µM [inhibitor, full curve, poor fit]

Question: Which max response, negative = inhibition does the source give for `COC(=O)c1nnc(C(=O)NCc2ccccc2)c2[nH]c3ccc(OC)cc3c12` here?
Answer: inactive: 3.42%

Question: Which max response, negative = inhibition does the source give for `CCCCCCCC/C=C\CCCCCCCC(=O)OC[C@@H](O)COP(=O)(O)O` here?
Answer: inactive: 0.0546% and inactive: -0.641%

Question: For `C=CS(=O)(=O)c1sc(Cl)c(N2CCOCC2)c1[N+](=O)[O-]`, which Potency is on record?
Answer: inconclusive: 28.2 µM [inhibitor, partial curve, poor fit]

Question: With `Cc1cc(N2CCCC2)c(F)cc1/C=C\[N+](=O)[O-]` as the molecule, how does the Potency read?
Answer: inconclusive: 14.1 µM [inhibitor, partial curve, poor fit]

Question: How did the max response, negative = inhibition turn out when `COc1ccc(-c2nc3cnc(N(C)C)nc3n(C)c2=O)cc1` was run?
Answer: inactive: 3.15%

Question: Which Potency does the source give for `O=C(C=Cc1ccccc1Cl)c1ccccc1` here?
Answer: active: 35.5 µM

Question: How did the Potency turn out when `COCC(=O)N1CCC2(CCCN(c3ccc(-c4ccccc4)cc3)C2)CC1` was run?
Answer: active: 50.1 µM

Question: How did the max response, negative = inhibition turn out when `Cn1c(=O)c2c(n3c4ccccc4nc13)NC(=O)CC2c1ccccc1F` (stereo unspecified) was run?
Answer: inactive: 6.65%

Question: How did the max response, negative = inhibition turn out when `Cc1ccc(/C=C2/N=C(c3ccccc3)NNC2=O)cc1` was run?
Answer: inactive: 1.96%

Question: `CN(CC(=O)Nc1cccc2ccccc12)C(=O)c1ccc(F)cc1F` was tested. Which Potency did it give?
Answer: inconclusive: 89.1 µM [inhibitor, single point]

Question: Which Potency does the source give for `C[N+](C)(C)CCC(=O)N1C/C(=C/c2ccccc2)C(=O)/C(=C\c2ccccc2)C1` here?
Answer: active: 79.4 µM

Question: With `Clc1ccc(CO/N=C2\CCCc3nonc32)cc1` as the molecule, how does the Potency read?
Answer: inconclusive: 70.8 µM [inhibitor, single point]

Question: For `COc1cccc(NC(=O)c2ccc3c(O)c(S(=O)(=O)c4ccccc4)c(=O)[nH]c3c2)c1`, which Potency is on record?
Answer: inconclusive: 11.2 µM [inhibitor, partial curve]

Question: With `COc1ccc(C(=O)N2CCC[C@@]3(CCN(Cc4ccccc4OC)C3)C2)cc1` as the molecule, how does the Potency read?
Answer: inconclusive: 89.1 µM [inhibitor, partial curve, poor fit]

Question: `CCOc1ccc(NC(=O)CN2CCCC2c2cccs2)cc1S(=O)(=O)N1CCCCC1` (stereo unspecified) was tested. Which Potency did it give?
Answer: inconclusive: 89.1 µM [inhibitor, single point]

Question: Which Potency does the source give for `C=CC(C1=CC(=O)C=CC1=O)c1ccc(O)cc1` (stereo unspecified) here?
Answer: active: 39.8 µM

Question: How did the max response, negative = inhibition turn out when `COc1ccc2nc(N(Cc3cccnc3)C(=O)CCc3ccccc3)sc2c1` was run?
Answer: inactive: 11.1%

Question: For `Cc1ccc2cc(CN(c3ccccc3C)S(=O)(=O)c3ccccc3)c(=O)[nH]c2c1`, which Potency is on record?
Answer: inconclusive: 22.4 µM [inhibitor, partial curve, poor fit]

Question: How did the Potency turn out when `COc1cccc(C(=S)N2CCCC2)c1OC` was run?
Answer: inconclusive: 79.4 µM [inhibitor, single point]

Question: How did the Potency turn out when `CSCCNC(=O)c1ccc(OC2CCN(S(=O)(=O)N(C)C)CC2)cc1` was run?
Answer: inconclusive: 50.1 µM [inhibitor, single point]

Question: Which max response, negative = inhibition does the source give for `O=[N+]([O-])c1ccc(O)c(/C=N/Nc2ncnc3c2cnn3-c2ccccc2)c1` here?
Answer: inactive: 24.2%

Question: With `Nn1c(C2COc3ccccc3O2)n[nH]c1=S` (stereo unspecified) as the molecule, how does the Potency read?
Answer: inconclusive: 100 µM [inhibitor, single point]

Question: For `CCOC(=O)C1CCN(C(=O)Cn2nc(CC)n3cccc3c2=O)CC1`, which Potency is on record?
Answer: inconclusive: 20 µM [inhibitor, partial curve, poor fit]

Question: How did the Potency turn out when `CC1CCCC(=C\c2ccccc2)/C1=N/O` (stereo unspecified) was run?
Answer: inconclusive: 35.5 µM [inhibitor, partial curve, poor fit]

Question: For `CN(C)C(=O)c1ccc(-c2nc(NCc3cccnc3)c3ccccc3n2)cc1`, which max response, negative = inhibition is on record?
Answer: inactive: -7.56%

Question: With `CCn1cc(CNCc2ccc(OCC(O)CN(C)Cc3ccccc3)cc2)cn1` (stereo unspecified) as the molecule, how does the max response, negative = inhibition read?
Answer: inactive: -19.8%

Question: Which Potency does the source give for `c1ccc(N/N=C(\Cc2nc3ccccc3[nH]2)c2ccccc2)cc1` here?
Answer: inconclusive: 50.1 µM [inhibitor, partial curve, poor fit]

Question: With `Cc1ccc(C(=O)Nc2nc(-c3cccnc3)cs2)o1` as the molecule, how does the max response, negative = inhibition read?
Answer: inactive: -10.3%

Question: How did the max response, negative = inhibition turn out when `CSc1ccccc1OCc1cc(C(=O)NC(C)c2cnn(C)c2)no1` (stereo unspecified) was run?
Answer: inactive: -11.5%

Question: For `O=C(C1=C(O)C(=O)N(c2ncccn2)C1c1ccc(Cl)c(Cl)c1)c1ccco1` (stereo unspecified), which Potency is on record?
Answer: inconclusive: 56.2 µM [inhibitor, partial curve, poor fit]

Question: With `c1ccc(COc2nsnc2N2CCOCC2)cc1` as the molecule, how does the Potency read?
Answer: inconclusive: 56.2 µM [inhibitor, partial curve, poor fit]

Question: Which Potency does the source give for `CCCCCOCC1CC(C/C(C)=N/Nc2nc(-c3ccccc3)cs2)C(=O)O1` (stereo unspecified) here?
Answer: inconclusive: 56.2 µM [inhibitor, partial curve, poor fit]

Question: How did the Potency turn out when `CC(=O)c1cc(CN2CCN(CCC(C)C)C(CCO)C2)cs1` (stereo unspecified) was run?
Answer: inconclusive: 28.2 µM [inhibitor, partial curve, poor fit]

Question: For `O=C(NCCSc1ncc(-c2ccc(F)cc2)[nH]1)c1ccco1`, which max response, negative = inhibition is on record?
Answer: inactive: 6.21%

Question: With `Cc1nnc(NC(=O)c2nc(S(=O)(=O)Cc3ccccc3C)ncc2Cl)s1` as the molecule, how does the Potency read?
Answer: active: 35.5 µM

Question: Which Potency does the source give for `Cc1ccc(NC(=O)C2CCCN2C(=O)NCc2ccccc2)cc1` (stereo unspecified) here?
Answer: inconclusive: 70.8 µM [inhibitor, partial curve]

Question: For `C#CCOCCOCCOCCNc1nc(N2CCN(C(=O)[C@H]([C@@H](C)CC)n3cc(CCCN=C(N)N)nn3)CC2)nc(N2CCN(C(=O)[C@H](Cc3ccc(O)cc3)n3cc(CCO)nn3)CC2)n1`, which max response, negative = inhibition is on record?
Answer: inactive: -17.4%

Question: For `CCOc1ccccc1NC(=O)CCn1c(-c2ccc(OC)cc2)cc(C(C)=O)c1C`, which max response, negative = inhibition is on record?
Answer: inactive: 7.5%

Question: For `COc1cc(/C=C2\SC(=S)N(NS(=O)(=O)c3ccc(C)cc3)C2=O)cc(OC)c1OC`, which Potency is on record?
Answer: inconclusive: 56.2 µM [inhibitor, partial curve, poor fit]

Question: For `COC(=O)[C@]1(C)CCC[C@]2(C)c3ccc(C(C)C)cc3C(=O)CC12` (stereo partly specified), which Potency is on record?
Answer: inconclusive: 50.1 µM [inhibitor, partial curve, poor fit]

Question: For `CCOC(=O)c1cc(CC)sc1NC(=O)c1cc(OCC)c(OCC)c(OCC)c1`, which Potency is on record?
Answer: inconclusive: 100 µM [inhibitor, partial curve, poor fit]

Question: `Cc1ccc(OCC(=O)Nc2c(C(=O)c3ccccc3)oc3ccccc23)cc1C` was tested. Which Potency did it give?
Answer: inconclusive: 89.1 µM [inhibitor, single point]

Question: How did the max response, negative = inhibition turn out when `O=C1NC(c2ccc(-c3ccccc3[N+](=O)[O-])o2)C(C(=O)c2ccc(F)cc2)C(O)(C(F)(F)F)N1` (stereo unspecified) was run?
Answer: inactive: -2.54%

Question: How did the Potency turn out when `Cc1ccc(-c2cc(C(=O)N3CC(C)CC(C)C3)c3ccccc3n2)o1` (stereo unspecified) was run?
Answer: inconclusive: 89.1 µM [inhibitor, partial curve, poor fit]

Question: With `Cc1cc(C)cc(C(=O)N(C)[C@H](Cc2ccc(-c3ccccc3)cc2)C(=O)N[C@@H](Cc2c[nH]c3ccccc23)C(=O)O)c1` as the molecule, how does the Potency read?
Answer: inconclusive: 35.5 µM [inhibitor, single point]

Source: PubChem BioAssay AID504847 (National Center for Advancing Translational Sciences (NCATS), 2011)
